## Screening data, single-dose tests

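Cell assay of Leishmania donovani living inside macrophages; the read-out is not stated. Tested at 30 µM. The record gives no direction; compounds that gave an IC50 in retests scored well above the rest, so higher reads as stronger inhibition. Of about 69,000 compounds tested this way, about 1,000 (1.5%) reached 50% or more in at least one test.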

Results are given as percent effect. The record does not define 0% and 100%; most values in the screen are far below 50% and negative numbers occur (in some assays of this library far below -100). Compounds were drawn at random from those tested, without regard to their results. Two or more numbers in one place are separate tests of the same structure; such repeats can differ widely.

compound	effect
O=C(O)C(F)(F)F.[H][C@@]12CN(CC3CCC3)C[C@]1([H])OCCN2c1cnccn1	11.36%
CN1CCc2nnc(C3CCCN3S(=O)(=O)c3ccc(F)cc3)n2CC1 (stereo not shown)	19.41%
O=c1[nH]c2ncccc2n1C1CCCC1	11.11%
COc1ccccc1CC1CCCN(CC(=O)NC2CC2)C1 (stereo not shown)	-11.78%
Cc1oc(-c2ccco2)nc1CNC1CCCN(c2cccnn2)C1 (stereo not shown)	11.27%
Cc1cc(C)n(CC2CN(Cc3nc4ccccc4s3)CCO2)n1 (stereo not shown)	38.26%
OCc1ccc(CN2CCC(n3cc(-c4ccsc4)nn3)CC2)o1	21.5%
CC(C)(C)c1nc(NS(=O)(=O)c2cccc(F)c2)no1	5.004%
Cc1ccsc1CNC(=O)Nc1ccn(CCN2CCOCC2)n1	-31.71%
Cc1nc(CN2CCN(C(=O)c3ccn(C)c(=O)c3)CC2)cs1	1.029%
CN(C)Cc1nnc(C(=O)N(C)Cc2ccc(C(F)(F)F)cc2)o1	6.907%
O=C(CCc1cn[nH]c1)N1C[C@H](CO)C[C@H](CN2CCOCC2)C1	34.65%
CCCc1cc(=O)[nH]c2nnc(SCC(=O)NC(C)(C)C)n12	10.72%
Cc1nn(CCC#N)c(C)c1CCC(=O)N(C)C.Cl	-20.86%
[H][C@@]12CCN(Cc3ccco3)C[C@@]1([H])[C@H](C(=O)N1CCCCO1)CCO2	12.49%
COCCn1cnc(-c2nc(C(=O)N3CCOCC3)c3ccccn23)c1	19.8%
CCN(C)C(=O)c1cc(-c2cn(C(C)C)cn2)n2ccccc12	-7.757%
CC(C)Cc1noc(CN2CCCC(CNS(N)(=O)=O)C2)n1 (stereo not shown)	5.075%
CNC(=O)C1(c2cnccn2)CCCN1C(=O)c1ncccc1C (stereo not shown)	-7.721%
CCOc1cc(=O)n2c(c1C(=O)OCc1ccc(OC)cc1)CCCC2	-54.2%
CC(=O)Cn1cc(C#N)c(=O)c2cc(Br)ccc21	25.23%
CCCOc1ccc(OCCN2CCOCS2(=O)=O)cc1	25.87%
CCc1nnc2n1CCN(C(=O)c1ccc3[nH]nnc3c1)C2	8.051%
CCc1nccn1-c1cncc(C2CCCN2Cc2ccc(F)cc2)n1 (stereo not shown)	-29.3%
COCC1COCCC12CCN(C(=O)Cc1ccc(F)cc1)CC2 (stereo not shown)	11.3%
COc1ccc(CS(=O)(=O)CC(=O)NCC2CC2)cc1F	30.77%
N#Cc1cc(C#N)c(SCC(=O)NCc2ccc(F)cc2)nc1N	-50.04%
COc1c[nH]c(C(=O)Nc2nc(C)cs2)cc1=O	3.66%
O=C(O)C(F)(F)F.[H][C@@]12CCN(c3ncc(F)cn3)[C@]1([H])CC[C@@H](C(=O)NCCOC)O2	7.754%
O=C(O)C(F)(F)F.O=C(c1ccc[nH]1)N1CCCn2c(CNC3CCC3)nnc2C1	19.78%
N#CC1(C(=O)N2C[C@H](Nc3ncccn3)[C@@H](C3CC3)C2)CCOCC1	15.67%
CNS(=O)(=O)c1ccc(CNC(=O)c2cc(-c3ccccn3)no2)cc1	3.705%
COc1ccccc1CNC(=O)C(C)N1CC(n2nc(C)cc2C)C1 (stereo not shown)	16.05%
CCc1ncc2c(n1)CN(Cc1nc(-c3ccccn3)no1)CC2	14.83%
COc1ccc(C)cc1CCNS(=O)(=O)c1ccc2c(c1)CCC(=O)N2	25.25%
[H][C@]12CNC[C@@]1(C(=O)N(C)Cc1cnc(NC)nc1)CN(C(=O)C1CC1)C2	-2.329%
CNS(=O)(=O)c1ccc(C(=O)N2CCCC2c2ccncc2)o1 (stereo not shown)	-5.836%
CN(C)CCN1CCOCC2(CCCN(C(=O)c3ccccc3)C2)C1.O=C(O)C(F)(F)F.O=C(O)C(F)(F)F (stereo not shown)	-4.796%
O=C1CC2(CCN(C(=O)c3ccccn3)C2)Nc2ccccc2N1 (stereo not shown)	15.28%
Cc1ccc(CNCc2nnc3n2CC(C(F)(F)F)CC3)cc1 (stereo not shown)	10.32%
Cc1cccnc1C(Cc1ccsc1)NC(=O)Cn1cccnc1=O (stereo not shown)	7.385% & -11.26%
CNC(=O)c1cccc(CNC(C)c2cc(Cl)ccc2OC)c1 (stereo not shown)	-11.63%
CNC(=O)c1cc(-c2ccccc2OC)[nH]n1	40.42%
COCCN(Cc1ccccn1)C(=O)Nc1cccnc1N1CCCC1	0.01916%
Cc1noc(C)c1CCC(=O)N(C)C(C)c1cccs1 (stereo not shown)	13.48%
CC(C)(C)c1nc(CN2CCc3onc(-c4cccc(F)c4)c3C2)no1	11.31%
Cc1cc(C)c(-c2nc(-c3c(C)ncc4c3CCNC4)no2)o1	-3.583%
O=C1CCN(C(=O)CCc2cc(Br)cs2)CCN1	30.86%
CC1CCN(c2ncc3c(n2)CN(Cc2cccc(F)c2)C3=O)CC1	11.12%
COCC1CN(C(=O)Cc2cccs2)Cc2c1cnn2C (stereo not shown)	-22.9%
COC(=O)Nc1nc2c(s1)CN(C(=O)NCc1cccs1)CC2	-0.9773%
Oc1cc(-c2nccs2)nc(C2CCN(Cc3cccs3)CC2)n1	13.66%
c1ccc(Oc2nccc3occc23)c(CN2CCCCC2)c1	7.5%
COc1ccccc1NC(=O)CCNC(=O)c1ccoc1	-5.56%
O=C(O)C(F)(F)F.[H][C@@]12OCCN(CC3CCOCC3)[C@@]1([H])CC[C@H]2OCC	-9.248%
O=C(c1cnco1)N1CCCC(Cc2cccc3ncccc23)C1 (stereo not shown)	35.76%
CC(=O)N(Cc1ncc(C)o1)C1CCN(CCc2cccs2)C1 (stereo not shown)	-6.821%
CC(C)c1ncc(CN2CCCC2c2[nH]ncc2C(=O)N(C)C)cn1 (stereo not shown)	16.32%
CCc1cc(CN(C)C(=O)c2cnn[nH]2)on1	12.71%
CCc1noc(CNc2cccc(C(=O)N3CCSCC3)c2)n1	-7.134%
CC(=O)c1cccc(OCC(=O)NS(=O)(=O)c2cccs2)c1	10.79%
O=C(O)C(F)(F)F.O=C(O)C(F)(F)F.[H][C@@]12CN(CC3CC3)C[C@]1([H])OCCN2c1ncccn1	-13.58%
CC(=O)Nc1ncc(S(=O)(=O)Nc2ccccc2)s1	-54.24%
CNc1nc(N2CCN(C3CCCCC3)C(CCO)C2)nc2c1CCC2 (stereo not shown)	22.8%
O=C(NCCC(O)c1ccoc1)Nc1cccs1 (stereo not shown)	34.12%
COc1ccc(Cl)cc1-n1c(COC(C)C)n[nH]c1=O	4.814%

5 of the entries, repeated:

compound,effect
Cc1cc(C)n(CC2CN(Cc3nc4ccccc4s3)CCO2)n1 (stereo not shown),38.26%
Cc1nn(CCC#N)c(C)c1CCC(=O)N(C)C.Cl,-20.86%
CC(=O)Cn1cc(C#N)c(=O)c2cc(Br)ccc21,25.23%
COCCN(Cc1ccccn1)C(=O)Nc1cccnc1N1CCCC1,0.01916%
CNC(=O)c1cccc(CNC(C)c2cc(Cl)ccc2OC)c1 (stereo not shown),-11.63%

The values are deposited in ChEMBL (CHEMBL3988442, “University of Dundee, Small-Polar-MMV Screening Library” (2021)).